Drawing on the supplement of paper PMC10849652, this text covers log2 fold change for 32 targets.

Chains of the proteins cited; added tags and fusions are not shown. Lines headed by an entry give the natural chain unless they say otherwise; changes in a name come on top.
UniProt O60701: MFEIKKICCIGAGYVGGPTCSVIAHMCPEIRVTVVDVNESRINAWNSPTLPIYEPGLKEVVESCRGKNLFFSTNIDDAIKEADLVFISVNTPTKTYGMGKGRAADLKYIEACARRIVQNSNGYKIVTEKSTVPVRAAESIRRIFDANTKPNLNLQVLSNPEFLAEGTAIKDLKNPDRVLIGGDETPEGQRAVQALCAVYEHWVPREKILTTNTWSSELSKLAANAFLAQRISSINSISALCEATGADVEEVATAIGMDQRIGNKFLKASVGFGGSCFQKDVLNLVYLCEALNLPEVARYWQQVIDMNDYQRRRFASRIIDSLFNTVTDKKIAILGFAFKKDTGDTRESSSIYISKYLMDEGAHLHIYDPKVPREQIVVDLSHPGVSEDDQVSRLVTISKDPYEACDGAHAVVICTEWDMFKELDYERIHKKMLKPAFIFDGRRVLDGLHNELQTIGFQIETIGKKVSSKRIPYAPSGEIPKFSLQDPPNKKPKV
UniProt Q8TAA9: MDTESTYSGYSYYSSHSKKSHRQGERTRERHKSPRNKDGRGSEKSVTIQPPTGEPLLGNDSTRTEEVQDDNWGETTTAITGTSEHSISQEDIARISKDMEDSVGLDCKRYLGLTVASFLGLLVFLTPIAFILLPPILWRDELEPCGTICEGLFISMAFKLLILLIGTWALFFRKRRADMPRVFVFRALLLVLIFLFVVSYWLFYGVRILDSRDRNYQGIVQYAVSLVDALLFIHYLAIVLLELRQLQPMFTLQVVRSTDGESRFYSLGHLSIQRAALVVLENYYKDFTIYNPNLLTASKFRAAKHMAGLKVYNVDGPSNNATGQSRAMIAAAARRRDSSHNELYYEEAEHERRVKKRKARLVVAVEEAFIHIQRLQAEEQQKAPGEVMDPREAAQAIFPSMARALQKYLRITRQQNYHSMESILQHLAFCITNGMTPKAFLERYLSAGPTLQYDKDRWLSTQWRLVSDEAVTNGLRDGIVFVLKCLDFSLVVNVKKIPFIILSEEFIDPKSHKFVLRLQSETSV
UniProt Q9Y3C8: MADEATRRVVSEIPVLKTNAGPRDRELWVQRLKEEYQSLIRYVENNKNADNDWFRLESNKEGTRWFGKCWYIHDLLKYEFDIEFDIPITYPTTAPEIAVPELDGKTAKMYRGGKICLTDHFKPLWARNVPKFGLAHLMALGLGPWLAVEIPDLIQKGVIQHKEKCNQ
UniProt O14957: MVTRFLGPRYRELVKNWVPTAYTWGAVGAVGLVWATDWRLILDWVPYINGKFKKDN
UniProt P14927: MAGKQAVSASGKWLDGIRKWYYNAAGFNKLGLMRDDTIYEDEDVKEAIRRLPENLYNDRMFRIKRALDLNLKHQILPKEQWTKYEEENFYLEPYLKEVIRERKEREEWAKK
UniProt P45974: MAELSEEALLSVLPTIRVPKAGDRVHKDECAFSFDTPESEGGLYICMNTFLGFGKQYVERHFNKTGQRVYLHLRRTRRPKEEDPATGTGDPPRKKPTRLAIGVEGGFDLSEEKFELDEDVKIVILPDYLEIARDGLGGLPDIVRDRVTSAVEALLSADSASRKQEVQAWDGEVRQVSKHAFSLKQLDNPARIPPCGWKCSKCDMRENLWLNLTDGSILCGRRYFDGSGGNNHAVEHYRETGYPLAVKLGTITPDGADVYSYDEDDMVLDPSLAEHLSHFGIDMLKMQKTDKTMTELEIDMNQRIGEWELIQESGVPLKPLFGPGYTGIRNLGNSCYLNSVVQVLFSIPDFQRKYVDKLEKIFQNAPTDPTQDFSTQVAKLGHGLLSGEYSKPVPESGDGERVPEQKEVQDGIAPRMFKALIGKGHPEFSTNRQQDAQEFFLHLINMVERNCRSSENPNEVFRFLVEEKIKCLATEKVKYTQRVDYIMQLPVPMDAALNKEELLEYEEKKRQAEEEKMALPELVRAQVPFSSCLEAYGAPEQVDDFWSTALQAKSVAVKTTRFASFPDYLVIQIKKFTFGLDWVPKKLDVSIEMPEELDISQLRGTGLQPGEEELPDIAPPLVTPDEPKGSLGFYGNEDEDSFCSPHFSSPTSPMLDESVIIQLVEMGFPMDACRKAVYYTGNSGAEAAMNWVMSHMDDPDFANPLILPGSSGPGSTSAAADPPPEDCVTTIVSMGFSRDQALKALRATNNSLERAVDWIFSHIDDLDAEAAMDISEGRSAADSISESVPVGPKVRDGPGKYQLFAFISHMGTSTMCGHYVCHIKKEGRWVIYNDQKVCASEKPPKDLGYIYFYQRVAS
UniProt P07919: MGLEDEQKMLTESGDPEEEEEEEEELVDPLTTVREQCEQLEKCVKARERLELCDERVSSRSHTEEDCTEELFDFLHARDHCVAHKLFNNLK
UniProt Q6BDS2: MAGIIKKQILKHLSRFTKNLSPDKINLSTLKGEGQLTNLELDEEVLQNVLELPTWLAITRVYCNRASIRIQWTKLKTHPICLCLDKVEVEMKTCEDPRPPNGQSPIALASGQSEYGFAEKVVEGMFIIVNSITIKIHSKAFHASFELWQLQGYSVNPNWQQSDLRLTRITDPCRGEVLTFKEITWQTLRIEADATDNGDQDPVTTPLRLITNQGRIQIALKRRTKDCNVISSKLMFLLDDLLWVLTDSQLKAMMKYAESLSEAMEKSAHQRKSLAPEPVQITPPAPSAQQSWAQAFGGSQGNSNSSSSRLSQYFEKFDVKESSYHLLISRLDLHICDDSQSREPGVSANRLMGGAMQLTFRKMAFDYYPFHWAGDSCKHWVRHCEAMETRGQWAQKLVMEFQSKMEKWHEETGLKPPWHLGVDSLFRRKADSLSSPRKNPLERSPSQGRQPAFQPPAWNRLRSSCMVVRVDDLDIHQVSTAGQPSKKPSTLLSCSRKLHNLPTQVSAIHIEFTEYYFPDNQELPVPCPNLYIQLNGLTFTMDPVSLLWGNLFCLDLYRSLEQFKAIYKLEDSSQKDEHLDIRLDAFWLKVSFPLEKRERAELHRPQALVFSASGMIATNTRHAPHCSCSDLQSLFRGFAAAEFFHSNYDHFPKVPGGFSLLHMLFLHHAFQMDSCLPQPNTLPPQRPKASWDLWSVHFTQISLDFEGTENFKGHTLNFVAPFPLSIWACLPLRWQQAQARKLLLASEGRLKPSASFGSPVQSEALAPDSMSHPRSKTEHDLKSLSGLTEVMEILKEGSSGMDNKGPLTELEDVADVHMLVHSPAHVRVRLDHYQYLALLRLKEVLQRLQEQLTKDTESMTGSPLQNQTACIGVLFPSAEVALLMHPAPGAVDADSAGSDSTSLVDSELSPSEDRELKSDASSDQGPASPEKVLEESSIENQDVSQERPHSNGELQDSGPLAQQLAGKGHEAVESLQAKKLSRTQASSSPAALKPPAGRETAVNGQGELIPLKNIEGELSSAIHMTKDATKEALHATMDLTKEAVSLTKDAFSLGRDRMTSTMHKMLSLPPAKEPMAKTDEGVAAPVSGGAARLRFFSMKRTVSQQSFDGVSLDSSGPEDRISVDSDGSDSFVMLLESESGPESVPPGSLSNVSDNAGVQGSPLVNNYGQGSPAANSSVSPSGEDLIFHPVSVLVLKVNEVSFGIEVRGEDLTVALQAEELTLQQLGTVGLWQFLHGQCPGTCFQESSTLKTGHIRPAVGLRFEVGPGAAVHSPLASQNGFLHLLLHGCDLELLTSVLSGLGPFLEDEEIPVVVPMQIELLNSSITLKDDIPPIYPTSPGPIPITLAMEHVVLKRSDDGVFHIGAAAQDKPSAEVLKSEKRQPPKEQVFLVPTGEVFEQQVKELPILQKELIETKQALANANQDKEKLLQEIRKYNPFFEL
UniProt Q9BZI7: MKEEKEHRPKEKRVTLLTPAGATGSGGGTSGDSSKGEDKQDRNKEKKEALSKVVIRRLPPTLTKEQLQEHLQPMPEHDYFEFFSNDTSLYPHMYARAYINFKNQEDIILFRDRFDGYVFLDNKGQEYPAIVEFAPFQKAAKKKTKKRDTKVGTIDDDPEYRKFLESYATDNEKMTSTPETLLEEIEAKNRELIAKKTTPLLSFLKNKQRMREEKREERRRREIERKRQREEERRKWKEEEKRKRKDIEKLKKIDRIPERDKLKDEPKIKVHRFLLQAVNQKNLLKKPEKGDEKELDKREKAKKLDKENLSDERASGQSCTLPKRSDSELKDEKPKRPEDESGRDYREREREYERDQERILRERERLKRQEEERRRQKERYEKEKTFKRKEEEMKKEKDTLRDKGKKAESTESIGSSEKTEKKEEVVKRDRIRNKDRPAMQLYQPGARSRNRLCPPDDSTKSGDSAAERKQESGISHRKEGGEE
UniProt Q9NYU2: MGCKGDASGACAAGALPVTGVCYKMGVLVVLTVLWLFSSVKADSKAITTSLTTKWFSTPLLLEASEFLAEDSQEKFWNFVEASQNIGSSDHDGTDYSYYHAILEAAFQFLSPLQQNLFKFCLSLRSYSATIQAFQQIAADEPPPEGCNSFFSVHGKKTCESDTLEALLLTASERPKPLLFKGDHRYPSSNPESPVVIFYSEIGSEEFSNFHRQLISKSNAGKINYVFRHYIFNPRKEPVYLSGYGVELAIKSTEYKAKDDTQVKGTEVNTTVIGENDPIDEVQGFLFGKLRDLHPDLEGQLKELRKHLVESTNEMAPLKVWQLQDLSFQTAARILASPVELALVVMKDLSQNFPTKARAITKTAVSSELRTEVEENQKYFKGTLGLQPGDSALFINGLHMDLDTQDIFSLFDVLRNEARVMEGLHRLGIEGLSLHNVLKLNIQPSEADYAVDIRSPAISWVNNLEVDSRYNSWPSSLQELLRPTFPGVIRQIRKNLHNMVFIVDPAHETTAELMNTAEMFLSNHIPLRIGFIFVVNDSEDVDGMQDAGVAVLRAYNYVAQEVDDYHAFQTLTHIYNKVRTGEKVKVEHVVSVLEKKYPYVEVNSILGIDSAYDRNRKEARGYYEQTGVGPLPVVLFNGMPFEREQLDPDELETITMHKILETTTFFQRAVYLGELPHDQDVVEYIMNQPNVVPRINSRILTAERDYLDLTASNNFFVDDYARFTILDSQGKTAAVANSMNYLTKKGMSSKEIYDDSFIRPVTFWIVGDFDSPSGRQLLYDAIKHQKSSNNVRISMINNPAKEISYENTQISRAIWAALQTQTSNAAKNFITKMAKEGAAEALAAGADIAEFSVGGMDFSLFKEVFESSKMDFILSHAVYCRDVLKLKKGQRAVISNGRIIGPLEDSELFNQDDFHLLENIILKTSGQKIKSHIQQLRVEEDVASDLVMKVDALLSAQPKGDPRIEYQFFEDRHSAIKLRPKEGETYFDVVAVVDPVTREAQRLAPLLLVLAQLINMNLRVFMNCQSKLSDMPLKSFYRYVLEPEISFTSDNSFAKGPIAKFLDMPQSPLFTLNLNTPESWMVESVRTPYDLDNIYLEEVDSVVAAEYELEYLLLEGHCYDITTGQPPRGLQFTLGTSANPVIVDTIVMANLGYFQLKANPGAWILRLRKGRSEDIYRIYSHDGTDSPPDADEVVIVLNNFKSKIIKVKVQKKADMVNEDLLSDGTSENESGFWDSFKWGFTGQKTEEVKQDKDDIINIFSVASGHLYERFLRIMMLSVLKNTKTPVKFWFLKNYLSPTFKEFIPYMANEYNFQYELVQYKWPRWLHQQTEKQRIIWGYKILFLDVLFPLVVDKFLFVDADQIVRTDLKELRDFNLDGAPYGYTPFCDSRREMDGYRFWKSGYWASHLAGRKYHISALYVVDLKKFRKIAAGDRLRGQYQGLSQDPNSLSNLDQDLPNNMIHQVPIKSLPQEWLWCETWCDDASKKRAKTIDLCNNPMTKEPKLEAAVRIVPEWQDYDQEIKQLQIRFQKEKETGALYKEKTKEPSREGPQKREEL
UniProt P63027, whole entry, looked up: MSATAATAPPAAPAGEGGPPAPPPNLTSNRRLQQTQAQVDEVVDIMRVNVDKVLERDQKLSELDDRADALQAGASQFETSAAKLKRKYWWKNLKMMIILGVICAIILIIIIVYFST
UniProt Q8NBZ7: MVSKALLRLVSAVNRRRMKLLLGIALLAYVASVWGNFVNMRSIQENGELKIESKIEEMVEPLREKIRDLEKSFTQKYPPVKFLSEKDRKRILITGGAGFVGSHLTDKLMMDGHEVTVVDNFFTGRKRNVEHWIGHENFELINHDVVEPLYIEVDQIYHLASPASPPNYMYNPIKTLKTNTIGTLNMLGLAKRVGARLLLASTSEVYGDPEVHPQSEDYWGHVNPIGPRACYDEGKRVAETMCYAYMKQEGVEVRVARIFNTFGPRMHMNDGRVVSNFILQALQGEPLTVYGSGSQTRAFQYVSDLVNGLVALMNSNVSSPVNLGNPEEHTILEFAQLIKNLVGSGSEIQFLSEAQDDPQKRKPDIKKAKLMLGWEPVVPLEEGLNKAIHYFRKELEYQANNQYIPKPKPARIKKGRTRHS
UniProt Q9NZ43: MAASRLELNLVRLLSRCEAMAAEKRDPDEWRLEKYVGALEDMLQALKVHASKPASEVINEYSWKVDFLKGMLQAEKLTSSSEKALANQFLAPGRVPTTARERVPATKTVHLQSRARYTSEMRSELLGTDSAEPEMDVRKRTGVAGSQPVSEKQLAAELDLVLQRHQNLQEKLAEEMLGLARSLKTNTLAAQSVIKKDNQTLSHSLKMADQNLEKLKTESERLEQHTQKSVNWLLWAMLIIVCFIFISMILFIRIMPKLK

Some of the results follow.

Compound in this test: Cc1ccc(NC(=O)c2ccc(CN3CC[C@H](N(C)C)C3)c(C(F)(F)F)c2)cc1Nc1nccc(-c2cncnc2)n1 [bafetinib]
Briefly: log2 fold change, soluble protein after heating vs DMSO (PISA); higher = thermal stabilisation; K562 lysate, 10 uM; active = over 0.2 and 3.5 SD of the protein, either way, in both replicates (recomputed). A digest of the protocol: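 The values are log-two fold changes in thermal stability compared with solvent controls and come from duplicates. They were obtained by TMTpro 16plex LC-MS/MS, with channel sums equalised, on the supernatant after 21,000xg for 90 min. That supernatant came from crude K562 extract at 1 mg/mL protein treated with 10 μM compound for 30 min, heated for 3 min across 48°C-58°C, pooled and brought to 0.5% NP-40 at 4°C.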
With UGDH (UniProt O60701), the log2 fold change was inactive: -0.019.
Consider USP32 (UniProt Q8NFA0), for which the log2 fold change was inactive: 0.067.
Consider VIRMA (UniProt Q69YN4), for which the log2 fold change was inactive: -0.046.
With UFD1 isoform 1 (UniProt Q92890), the log2 fold change was inactive: 0.068.
For the target VANGL1 (UniProt Q8TAA9), the log2 fold change was inactive: 0.016.
On to VARS2, A0A0G2JL52, for which the log2 fold change was inactive: -0.015.
As to UFC1 (UniProt Q9Y3C8), the log2 fold change was inactive: 0.095.
With UQCR11 (UniProt O14957), the log2 fold change was inactive: -0.044.
The figure for UIMC1 (UniProt Q96RL1) is inactive: -0.041; for UTP6 (UniProt Q9NYH9) it is inactive: -0.135.
On to UQCRB (UniProt P14927), for which the log2 fold change was inactive: 0.008.
On to USP5 isoform 2 (UniProt P45974), for which the log2 fold change was inactive: -0.004.
The figure for UGGT2 (UniProt Q9NYU1) is inactive: -0.066; for UQCRH (UniProt P07919) it is inactive: 0.046; for VCP (UniProt P55072) it is inactive: 0.04.
The figure for UHRF1BP1 (UniProt Q6BDS2) is inactive: -0.001; for UNC5B (UniProt Q8IZJ1) it is inactive: -0.019; for VCX3B (UniProt Q9H321) it is inactive: -0.002.
In the case of UHRF1BP1L (UniProt A0JNW5), the log2 fold change is inactive: -0.014.
As for UNC45A (UniProt Q9H3U1), the log2 fold change is inactive: -0.018.
As to UPF3B (UniProt Q9BZI7), the log2 fold change was inactive: -0.012.
With UGGT1 (UniProt Q9NYU2), the log2 fold change was inactive: -0.007.
The figure for VAMP2 (UniProt P63027) is inactive: -0.002; for USP1 (UniProt O94782) it is inactive: -0.102.
Consider USP13 (UniProt Q92995), for which the log2 fold change was inactive: -0.084.
As to UFL1 (UniProt O94874), the log2 fold change was inactive: -0.046.
Regarding USP4 (UniProt Q13107), the log2 fold change is inactive: -0.085.
The figure for VARS (UniProt P26640) is inactive: -0.012.
For ULBP2 (UniProt Q9BZM5), the log2 fold change is inactive: -0.013.
Consider UXS1 isoform 2 (UniProt Q8NBZ7), for which the log2 fold change is inactive: -0.064.
In the case of USE1 (UniProt Q9NZ43), the log2 fold change was inactive: -0.019.
Regarding USP48 isoform 8 (UniProt Q86UV5), the log2 fold change is inactive: -0.027.
